Results are given in words; binding and its absence hold for the method and conditions named. Binding calls can cover weak binding; strength is not graded here. Each block holds one binder with its values, some of them ahead of it.
How the values were obtained:
[1] = target: human Glypican-3 (GPC3) (human) (UniProt P51654); test: flow cytometry on Hep G2 cells, compared with AD84L3-1/N
[2] = target: human Glypican-3 (GPC3) (human) (UniProt P51654); test: flow cytometry, bivalent mAb on GPC3 positive cells

Protein sequences, listed by entry. Tags and fused reporters are not part of them. Lines headed by an entry give the natural chain unless they say otherwise; changes in a name come on top.
UniProt P51654: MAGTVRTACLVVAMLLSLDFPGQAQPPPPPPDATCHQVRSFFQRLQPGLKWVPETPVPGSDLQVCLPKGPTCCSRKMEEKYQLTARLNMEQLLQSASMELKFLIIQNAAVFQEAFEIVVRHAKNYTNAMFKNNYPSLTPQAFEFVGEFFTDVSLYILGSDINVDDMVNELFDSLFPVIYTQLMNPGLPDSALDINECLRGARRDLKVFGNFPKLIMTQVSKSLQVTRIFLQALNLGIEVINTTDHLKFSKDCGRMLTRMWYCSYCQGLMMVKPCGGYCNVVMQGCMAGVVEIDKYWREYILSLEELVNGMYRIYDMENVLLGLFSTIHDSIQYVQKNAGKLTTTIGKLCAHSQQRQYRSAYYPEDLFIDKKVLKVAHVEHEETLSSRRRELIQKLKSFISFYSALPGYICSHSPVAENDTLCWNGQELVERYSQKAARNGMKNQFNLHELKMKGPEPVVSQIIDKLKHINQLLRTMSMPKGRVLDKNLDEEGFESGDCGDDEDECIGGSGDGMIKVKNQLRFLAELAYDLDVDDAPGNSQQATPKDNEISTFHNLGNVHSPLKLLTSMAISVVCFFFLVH

binding [1]: binds
B1: ERY974 (bispecific antibody, human IgG4 S228P, kappa, N297A)
heavy 1: QVQLVQSGAEVKKPGASVTVSCKASGYTFTDYEMHWIRQPPGEGLEWIGAIDGPTPDTAYSEKFKGRVTLTADKSTSTAYMELSSLTSEDTAVYYCTRFYSYTYWGQGTLVTVSSASTKGPSVFPLAPCSRSTSESTAALGCLVKDYFPEPVTVSWNSGALTSGVHTFPAVLQSSGLYSLSSVVTVPSSSLGTQTYTCNVDHKPSNTKVDKRVESKYGPPCPPCPAPEFRGGPKVFLFPPKPKDTLMISRTPEVTCVVVDVSQEDPEVQFNWYVDGVEVHNAKTKPREEQFASTYRVVSVLTVLHQDWLNGKEYKCKVSNKGLPSSIEKTISKAKGQPREPQVYTLPPSQEEMTKNQVSLTCLVKGFYPSDIAVEWQSNGQTENNYKTTPPVLDSDGSFFLYSKLTVDKSRWQEGNVFSCSVMHEALHNHYTQESLSLSP
heavy 2: QVQLVESGGGVVQPGGSLRLSCAASGFTFSNAWMHWVRQAPGKGLEWVAQIKDKSQNYATYVAESVKGRFTISRADSKNSIYLQMNSLKTEDTAVYYCRYVHYAAGYGVDIWGQGTTVTVSSASTKGPSVFPLAPCSRSTSESTAALGCLVKDYFPEPVTVSWNSGALTSGVHTFPAVLQSSGLYSLSSVVTVPSSSLGTKTYTCNVDHKPSNTKVDKRVESKYGPPCPPCPAPEFRGGPKVFLFPPKPKDTLMISRTPEVTCVVVDVSQEDPEVQFNWYVDGVEVHNAKTKPREEQFASTYRVVSVLTVLHQDWLNGKEYKCKVSNKGLPSSIEKTISKAKGQPREPQVYTLPPSQKEMTKNQVSLTCLVKGFYPSDIAVEWESNGQPENNYKTTPPVLDSDGSFFLYSKLTVDKSRWQEGNVFSCSVMHEALHNRYTQKSLSLSP
light: DIVMTQSPLSLPVTPGEPASISCRSSQPLVHSNRNTYLHWYQQKPGQAPRLLIYKVSNRFSGVPDRFSGSGSGTDFTLKISRVEAEDVGVYYCGQGTQVPYTFGQGTKLEIKRTVAAPSVFIFPPSDEQLKSGTASVVCLLNNFYPREAKVQWKVDNALQSGNSQESVTEQDSKDSTYSLSSTLTLSKADYEKHKVYACEVTHQGLSSPVTKSFNRGEC

binding [2]: binds
B2: AD84 anti-GPC3 bivalent mAb (antibody, V domains shown)
VH: EVQLVESGGGLVQPGGSLKLSCAASGFTFNTYAMNWVRQAPGKGLEWVGRIRSKYNNYATYYADSVKDRFTISRDDSKNTAYLQMNSLKTEDTAVYYCVRHGNFGNSYVSWFAYWGQGTLVTVSS
VL: EIVLTQSPGTLSLSPGERATLSCRASQKVTNRELAWYQQKPGQAPRLLIYGATTKATGIPDRFSGSGSGTDFTLTISRLEPEDFAVYYCQQWALSPRGWVFGQGTKVEIK

— patent US20230287146A1
